The values below come from patent US6416957.

The chains behind the UniProt entries cited, without tags or fusion partners. Where a name states a change or a piece, a line headed by the entry shows the natural chain unless it says otherwise.
UniProt P19793: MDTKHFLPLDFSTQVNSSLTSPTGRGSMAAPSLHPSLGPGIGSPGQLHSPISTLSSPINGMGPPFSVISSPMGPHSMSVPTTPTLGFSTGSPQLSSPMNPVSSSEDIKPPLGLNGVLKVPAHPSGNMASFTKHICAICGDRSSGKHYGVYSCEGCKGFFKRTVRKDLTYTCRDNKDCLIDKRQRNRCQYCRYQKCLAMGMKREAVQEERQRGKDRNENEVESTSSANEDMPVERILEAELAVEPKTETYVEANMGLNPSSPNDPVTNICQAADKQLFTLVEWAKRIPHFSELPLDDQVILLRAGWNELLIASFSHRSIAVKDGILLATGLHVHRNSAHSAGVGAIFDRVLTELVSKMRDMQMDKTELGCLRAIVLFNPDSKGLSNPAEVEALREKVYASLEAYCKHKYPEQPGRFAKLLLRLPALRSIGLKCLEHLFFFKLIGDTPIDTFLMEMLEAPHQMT

Data set [1] has as its target T1, FAR (FXR) (Rattus norvegicus) (UniProt Q62735).
T1 sequence (limits assumed): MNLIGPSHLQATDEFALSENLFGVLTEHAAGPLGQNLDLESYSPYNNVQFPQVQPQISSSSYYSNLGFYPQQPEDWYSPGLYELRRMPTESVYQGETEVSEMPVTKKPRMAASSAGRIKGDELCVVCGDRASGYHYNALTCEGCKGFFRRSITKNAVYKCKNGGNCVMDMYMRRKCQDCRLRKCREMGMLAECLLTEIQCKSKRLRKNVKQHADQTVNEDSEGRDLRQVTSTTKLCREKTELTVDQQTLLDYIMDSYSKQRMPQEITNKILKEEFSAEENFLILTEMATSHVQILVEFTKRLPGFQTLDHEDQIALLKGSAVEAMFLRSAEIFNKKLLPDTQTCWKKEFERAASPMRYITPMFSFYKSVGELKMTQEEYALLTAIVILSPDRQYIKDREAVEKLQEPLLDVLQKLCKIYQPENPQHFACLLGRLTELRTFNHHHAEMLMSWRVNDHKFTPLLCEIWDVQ
Put plainly: activity in cells. The note with it: protein in cells; protein details: CMV-driven expression in CV-1 cells; variant of hsp27-EcRE; only the site is given.

In data set [2] the target is RXRalpha (Homo sapiens) (UniProt P19793). Nature of the data set: activity in cells. Particulars: RXRalpha alone not activated by 50 uM JH III; protein in cells; protein details: CMV-driven expression in CV-1 cells; variant of hsp27-EcRE; only the site is given.

A negative result means that nothing was seen under these conditions. For some assays here: Construct, isoform or probe ends are uncertain for at least one entry. For some assays here: Tags and fusion partners may be left off the protein sequences shown.

As to “GGTTCAATGCACT (double strand) [hsp27-EcREx5 MTV-luciferase reporter]”, the “activity on this sequence” value in data set [1] and in data set [2] was “not active” in each case.
